Experimental data taken from article PMC12431657, “Discovery and mechanistic insights of dibenzoylmethane as a broad spectrum inhibitor of coronavirus” (PLOS Pathogens, 2025).
Counter-ions that a name gives are not always drawn. Like-named read-outs stand apart in the source and are kept apart here. The whole screen tested about 3,300 compounds, of which about 60 (2%) showed an effect of 50% or more. Some of the results follow.

System: HCoV-OC43
Set-up: species or system RD; HTS, protection from HCoV-OC43 induced cell death, luminescent cell viability (CellCounting-Lite 2.0), inhibition rate
Details: 10 µM, inhibitor

O=C1C([C@@H]2O[C@H](CO)[C@@H](O)[C@H](O)[C@H]2O)=C(O)/C(=C(O)/C=C/c2ccc(O)cc2)C(=O)C1(O)[C@@H]1O[C@H](CO)[C@@H](O)[C@H](O)[C@H]1O (stereo partly drawn) [Hydroxysafflor yellow A]
OC43 Inhibition rate (24 h): 0.2%

C[S+](CC[C@H](N)C(=O)[O-])C[C@H]1O[C@@H](n2cnc3c(N)ncnc32)[C@H](O)[C@@H]1O (stereo partly drawn) [S-Adenosyl-L-methionine (disulfate tosylate)]
OC43 Inhibition rate (24 h): -2.9%

CN1Cc2c(ccc3c2OCO3)[C@@H]2[C@H]1c1cc3c(cc1C[C@@H]2O)OCO3 [Chelidonine]
OC43 Inhibition rate (24 h): 6%

CN1[C@@H](CC(=O)c2ccccc2)CCC[C@H]1CC(=O)c1ccccc1 [Lobelanine]
OC43 Inhibition rate (24 h): 12.9%

COc1cc2cc(c1Cl)N(C)C(=O)C[C@H](OC(=O)C(C)C)[C@]1(C)O[C@@H]1[C@H](C)[C@@H]1C[C@@](O)(NC(=O)O1)[C@H](OC)/C=C/C=C(\C)C2 [Ansamitocin P-3]
OC43 Inhibition rate (24 h): 17.2%

C/C=C/C#CC#C/C=C/c1ccco1 [Atractylodin]
OC43 Inhibition rate (24 h): 0.5%

Oc1c(Br)cccc1Br [2,6-Dibromophenol]
OC43 Inhibition rate (24 h): 1.1%

C[C@@H]1CC[C@@]2(OC1)O[C@H]1[C@@H](O)[C@H]3[C@@H]4CC[C@H]5C[C@@H](O[C@@H]6O[C@H](CO)[C@H](O[C@@H]7O[C@H](CO)[C@@H](O)[C@H](O[C@@H]8OC[C@@H](O)[C@H](O)[C@H]8O)[C@H]7O[C@@H]7O[C@H](CO)[C@H](O)[C@H](O[C@@H]8O[C@H](CO)[C@@H](O)[C@H](O)[C@H]8O)[C@H]7O)[C@H](O)[C@H]6O)[C@H](O)C[C@]5(C)[C@H]4CC[C@]3(C)[C@H]1[C@@H]2C [Digitonin]
OC43 Inhibition rate (24 h post infection, 1 h compound pre-incubation): 5.5%

COc1ccc(/C=C/c2cc(OC)cc(OC)c2)cc1 [trans-Trimethoxyresveratrol]
OC43 Inhibition rate (24 h): 9.7%

CC(C)[C@@H]1NC(=O)[C@H](C)OC(=O)[C@@H](C(C)C)NC(=O)[C@@H](C(C)C)OC(=O)[C@H](C(C)C)NC(=O)[C@H](C)OC(=O)[C@@H](C(C)C)NC(=O)[C@@H](C(C)C)OC(=O)[C@H](C(C)C)NC(=O)[C@H](C)OC(=O)[C@@H](C(C)C)NC(=O)[C@@H](C(C)C)OC1=O [Valinomycin]
OC43 Inhibition rate (24 h): 24.4%

C[C@H]1CCCC(=O)CCC/C=C/c2cc(O)cc(O)c2C(=O)O1 [Zearalenone]
OC43 Inhibition rate (24 h): 56.4%

C/C=C(/C)C(=O)O[C@H]1[C@@H]2[C@H](C)C(=O)O[C@@H]2C[C@@H](C)[C@@H]2C=CC(=O)[C@]21C [Brevilin A]
OC43 Inhibition rate (24 h): -7.8%
